Results deposited as PubChem BioAssay AID743121 (NCATS, 2013).
The deposit covers about 26,000 reagents; this is an unselected part. 167 of all reagents (0.63%) were called active. 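Calls are per gene from RSA p-values that are not deposited; an individual active-marked siRNA can sensitise only weakly.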 Entries without a mark were called inactive. Reagents against one gene are numbered here.

Assay: 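Genes whose silencing strengthens cell killing by camptothecin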 (primary screen)
System: MDA-MB-231 cells, a human breast cancer line
Reagent: single siRNA against human genes, 20 nM siRNA (0.8 pmol per well)
Duration: 120 h (drug added 48 h after transfection, read 72 h later)
Conditions: camptothecin 20 nM (about EC30) for 72 h; vehicle 0.1% DMSO in parallel plates
Detection: 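Cell viability by ATP luminescence (CellTiter-Glo) as % of non-targeting siRNA wells, and the log2 ratio of viability without drug over viability with camptothecin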
Scale: log2 vehicle/camptothecin viability: higher = stronger sensitisation to camptothecin; viability with camptothecin and viability without drug: higher = more viable cells
Call rule: 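Active genes have an RSA gene-level p-value below 0.001, computed from the ratios of their separate siRNAs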

| gene | reagent | log2 vehicle/camptothecin viability | viability with camptothecin (% of control) | viability without drug (% of control) |
| --- | --- | --- | --- | --- |
| GRK2 | 1 | -0.0973 | 81.5 | 76.1 |
| GRK2 | 2 | -0.455 | 86.8 | 63.3 |
| GRK2 | 3 | -0.298 | 55.3 | 45 |
| GRK2 | 4 | 0.715 | 25.1 | 41.3 |
| PKHD1 | 1 | -0.249 | 120 | 101 |
| PKHD1 | 2 | -0.28 | 102 | 84.3 |
| PKHD1 | 3 | -0.23 | 72.8 | 62 |
| PKHD1 | 4 | -0.362 | 53 | 41.2 |
| NECTIN2 | 1 | -0.56 | 54 | 36.6 |
| NECTIN2 | 2 | -0.173 | 85.6 | 75.9 |
| NECTIN2 | 3 | 0.107 | 78.7 | 84.8 |
| NECTIN2 | 4 | 0.205 | 65.4 | 75.4 |
| SGSH | 1 | -0.411 | 54.9 | 41.3 |
| SGSH | 2 | -0.245 | 52 | 43.9 |
| SGSH | 3 | -0.168 | 66.8 | 59.5 |
| SGSH | 4 | 0.659 | 36.5 | 57.6 |
| CREM | 1 | 0.0625 | 71.9 | 75 |
| CREM | 2 | -0.467 | 69.8 | 50.5 |
| CREM | 3 | -0.383 | 91.8 | 70.4 |
| CREM | 4 | -0.233 | 88.8 | 75.5 |
| CREM | 5 | -0.23 | 64.7 | 55.2 |
| CREM | 6 | -0.396 | 93.2 | 70.8 |
| NTRK3 | 1 | -0.352 | 70.7 | 55.4 |
| NTRK3 | 2 | 0.0824 | 110 | 116 |
| NTRK3 | 3 | -0.792 | 60 | 34.6 |
| NTRK3 | 4 | 0.665 | 29.9 | 47.4 |

No new results follow: entries from further up.
| gene | reagent | log2 vehicle/camptothecin viability | viability with camptothecin (% of control) | viability without drug (% of control) |
| --- | --- | --- | --- | --- |
| PKHD1 | 2 | -0.28 | 102 | 84.3 |
| PKHD1 | 3 | -0.23 | 72.8 | 62 |

The listing continues:
| gene | reagent | log2 vehicle/camptothecin viability | viability with camptothecin (% of control) | viability without drug (% of control) |
| --- | --- | --- | --- | --- |
| GPIHBP1 | 1 | -0.277 | 90.9 | 75 |
| GPIHBP1 | 2 | -0.247 | 28.8 | 24.3 |
| GPIHBP1 | 3 | -0.152 | 12.9 | 11.6 |
| GPIHBP1 | 4 | -0.305 | 93.7 | 75.8 |
| PGAP1 | 1 | 0.0369 | 82.9 | 85 |
| PGAP1 | 2 | 0.00562 | 90.6 | 91 |
| PGAP1 | 3 | -0.344 | 99.9 | 78.7 |
| RAD51 | 1 | -0.375 | 54.4 | 41.9 |
| RAD51 | 2 | 0.82 | 26.1 | 46 |
| RAD51 | 3 | 0.164 | 26.3 | 29.5 |
| RAD51 | 4 | 0.11 | 47.4 | 51.1 |
| INTS6 | 1 | -0.07 | 47.6 | 45.3 |
| INTS6 | 2 | 0.00175 | 57.4 | 57.5 |
| INTS6 | 3 | -0.348 | 59.1 | 46.4 |
| INTS6 | 4 | -0.209 | 74.8 | 64.7 |
| RAD21 | 1 | 0.0204 | 94.7 | 96 |
| RAD21 | 2 | -0.54 | 88.2 | 60.7 |
| RAD21 | 3 | -0.413 | 71.2 | 53.4 |
| CCL27 | 1 | -0.139 | 94.1 | 85.5 |
| CCL27 | 2 | -0.524 | 78 | 54.2 |
| CCL27 | 3 | -0.339 | 63.6 | 50.3 |
